Source: article PMC12955895
Results are given in words; binding and its absence hold for the method and conditions named. In cells and extracts the contact can be indirect. Some binding calls cover weakened binding; strength is not graded here.

Protein sequences, listed by entry. Tags and fused reporters are not part of them.
UniProt P60842: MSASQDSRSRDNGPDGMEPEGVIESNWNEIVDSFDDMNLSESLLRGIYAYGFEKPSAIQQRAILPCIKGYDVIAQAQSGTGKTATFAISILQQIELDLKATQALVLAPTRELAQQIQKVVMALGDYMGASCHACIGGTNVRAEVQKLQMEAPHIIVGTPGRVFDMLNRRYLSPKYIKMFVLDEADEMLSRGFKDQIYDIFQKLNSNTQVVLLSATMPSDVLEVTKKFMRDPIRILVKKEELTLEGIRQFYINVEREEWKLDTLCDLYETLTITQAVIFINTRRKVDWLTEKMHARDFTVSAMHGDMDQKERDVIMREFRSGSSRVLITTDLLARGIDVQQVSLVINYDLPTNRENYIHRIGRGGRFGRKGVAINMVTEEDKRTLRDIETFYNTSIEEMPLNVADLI
UniProt P06730: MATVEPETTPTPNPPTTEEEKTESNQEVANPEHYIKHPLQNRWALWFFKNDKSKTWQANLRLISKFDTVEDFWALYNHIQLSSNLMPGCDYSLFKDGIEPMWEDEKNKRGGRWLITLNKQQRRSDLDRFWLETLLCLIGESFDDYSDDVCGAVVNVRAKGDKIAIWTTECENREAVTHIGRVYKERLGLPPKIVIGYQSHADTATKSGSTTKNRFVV

Tests used:
[1] = target: T1, T‐lymphokine‐activated killer cell‐originated protein kinase (TOPK), endogenous (human (endogenous in SGC7901, BGC823 and patient tissue)) (UniProt Q96KB5); test: proximity ligation; PLA on gastric cancer patient tumor tissue
T1 sequence: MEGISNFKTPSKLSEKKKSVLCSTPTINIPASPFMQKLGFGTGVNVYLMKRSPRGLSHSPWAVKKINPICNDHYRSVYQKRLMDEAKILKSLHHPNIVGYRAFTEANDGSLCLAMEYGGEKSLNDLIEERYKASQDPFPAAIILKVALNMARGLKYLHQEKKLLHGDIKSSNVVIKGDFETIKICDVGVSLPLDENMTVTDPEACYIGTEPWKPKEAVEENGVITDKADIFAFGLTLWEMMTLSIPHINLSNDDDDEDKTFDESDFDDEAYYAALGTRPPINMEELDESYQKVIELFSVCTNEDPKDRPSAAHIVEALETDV

[2] = target: T1, T‐lymphokine‐activated killer cell‐originated protein kinase (TOPK), endogenous (human (endogenous in SGC7901, BGC823 and patient tissue)); test: proximity ligation; PLA on adjacent normal tissue of gastric cancer patients
[3] = target: T1, T‐lymphokine‐activated killer cell‐originated protein kinase (TOPK), endogenous (human (endogenous in SGC7901, BGC823 and patient tissue)); test: proximity ligation; PLA of TOPK and eIF4A1 in SGC7901 and BGC823 cells under IFN‐γ conditions (10 ng mL^−1, 48 h)
[4] = target: T1, T‐lymphokine‐activated killer cell‐originated protein kinase (TOPK), endogenous (human (endogenous in SGC7901, BGC823 and patient tissue)); test: co-IP; endogenous TOPK and eIF4A1 in SGC7901 and BGC823 cells
TOPK, exogenous = target: T2, TOPK, exogenous (UniProt Q96KB5); test: co-IP; exogenous TOPK and eIF4A1 in 293T and BGC823 cells
T2 sequence: T1 sequence

binding (TOPK, exogenous) | Substance | binding [1] | binding [2] | binding [3] | binding [4]
 | eIF4A1, endogenous (from UniProt P60842 1-406) (enzyme) | binds | no binding (condition: in adjacent normal tissues) | binds | binds
binds | eIF4A1, exogenous (from UniProt P60842 1-406) (enzyme) |  |  |  | 
 | eIF4E (from UniProt P06730 1-217) | binds |  |  | 
